Experimental findings from publication PMC4749184 are described below.

The chains behind the UniProt entries cited, without tags or fusion partners.
UniProt Q03048: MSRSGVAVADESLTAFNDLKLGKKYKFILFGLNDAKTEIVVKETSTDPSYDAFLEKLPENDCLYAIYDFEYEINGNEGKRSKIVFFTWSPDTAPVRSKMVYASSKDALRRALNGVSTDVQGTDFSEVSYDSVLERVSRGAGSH

The target in the test is T1, TBSV p33 replication protein (bait of the split-ubiquitin assay) (Tomato bushy stunt virus) (UniProt P15962).
T1 sequence: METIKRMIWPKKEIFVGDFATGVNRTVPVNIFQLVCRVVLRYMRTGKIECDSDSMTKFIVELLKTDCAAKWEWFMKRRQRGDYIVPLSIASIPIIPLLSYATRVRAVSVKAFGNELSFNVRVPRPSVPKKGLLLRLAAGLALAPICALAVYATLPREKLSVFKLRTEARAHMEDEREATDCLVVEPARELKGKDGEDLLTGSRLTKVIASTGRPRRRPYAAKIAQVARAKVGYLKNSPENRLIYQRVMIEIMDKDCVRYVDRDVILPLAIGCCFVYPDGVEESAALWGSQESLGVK
As to the kind of experiment: two-hybrid; split-ubiquitin assay in yeast; p33 as bait co-expressed with NubG prey proteins; SSA1 and the empty prey vector (NubG-X) as positive and negative controls.

These are yes or no findings as the source states them, for the method shown. Some binding calls cover weakened binding; strength is not graded here.

As for “Cof1p (yeast cofilin), wild type, split-ubiquitin prey (from UniProt Q03048 1-143)”, the binding result was “binds”.
